# The supplement of paper PMC8728848
# Some of the results follow.
# Legend:
# Test in all cases: glycan array binding signal (z-score within array); higher = stronger binding
# Settings in all cases: glycan notation: IUPAC condensed, linker removed
# [1] = biological target: GalNAc(b1-4)GlcNAc(b1-2)Man
# Summary of the method: (§1)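 Arrays were curated from the Consortium for Functional Glycomics database, 3228 in total, and kept only where the protein sequence was available. Binding is expressed as a within-array Z-score. This score was averaged across arrays of the same protein sequence at different concentrations or buffers and across linkers, and negative values can be read as non-binding.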
# [2] = biological target: GalNAc(b1-4)GlcNAc(b1-2)Man(a1-3)[GalNAc(b1-4)GlcNAc(b1-2)Man(a1-6)]Man(b1-4)GlcNAc(b1-4)GlcNAc
# Summary of the method: as §1
# [3] = biological target: GalNAc(b1-4)GlcNAc(b1-3)GalNAc(b1-4)GlcNAc
# Summary of the method: as §1
# GalNAc(b1-4)GlcNAc6S = biological target: GalNAc(b1-4)GlcNAc6S
# Summary of the method: as §1
# GalNAc(b1-6)GalNAc = biological target: GalNAc(b1-6)GalNAc
# Summary of the method: as §1
# GalNAc3S(b1-4)GlcNAc = biological target: GalNAc3S(b1-4)GlcNAc
# Summary of the method: as §1
# GalNAc3S(b1-4)GlcNAc3S = biological target: GalNAc3S(b1-4)GlcNAc3S
# Summary of the method: as §1
# [4] = biological target: GalNAc3S(b1-4)[Fuc(a1-3)]GlcNAc
# Summary of the method: as §1
# GalNAc4S6S(b1-4)GlcNAc = biological target: GalNAc4S6S(b1-4)GlcNAc
# Summary of the method: as §1
# GalNAc6S(b1-4)GlcNAc = biological target: GalNAc6S(b1-4)GlcNAc
# Summary of the method: as §1
# Glc(a1-4)Glc = biological target: Glc(a1-4)Glc
# Summary of the method: as §1
# [5] = biological target: Glc(a1-4)Glc(a1-4)Glc(a1-4)Glc
# Summary of the method: as §1
# Glc(a1-6)Glc(a1-6)Glc = biological target: Glc(a1-6)Glc(a1-6)Glc
# Summary of the method: as §1
# [6] = biological target: Glc(a1-6)Glc(a1-6)Glc(a1-6)Glc
# Summary of the method: as §1
# Glc(b1-4)Glc = biological target: Glc(b1-4)Glc
# Summary of the method: as §1
# Glc(b1-6)Glc = biological target: Glc(b1-6)Glc
# Summary of the method: as §1
# GlcA(b1-3)Gal = biological target: GlcA(b1-3)Gal
# Summary of the method: as §1
# GlcA(b1-3)GlcNAc = biological target: GlcA(b1-3)GlcNAc
# Summary of the method: as §1
# GlcA(b1-6)Gal = biological target: GlcA(b1-6)Gal
# Summary of the method: as §1
# [7] = biological target: GlcA3S(b1-3)Gal(b1-4)GlcNAc(b1-2)Man
# Summary of the method: as §1
# [8] = biological target: GlcA3S(b1-3)Gal(b1-4)GlcNAc(b1-3)Gal(b1-4)Glc
# Summary of the method: as §1
# [9] = biological target: GlcNAc(a1-3)Gal(b1-4)GlcNAc
# Summary of the method: as §1
# [10] = biological target: GlcNAc(a1-4)Gal(b1-3)GlcNAc
# Summary of the method: as §1
# [11] = biological target: GlcNAc(a1-4)Gal(b1-4)GalNAc
# Summary of the method: as §1
# [12] = biological target: GlcNAc(a1-4)Gal(b1-4)GlcNAc
# Summary of the method: as §1
# [13] = biological target: GlcNAc(a1-4)Gal(b1-4)GlcNAc(b1-3)Gal(b1-4)Glc
# Summary of the method: as §1
# [14] = biological target: GlcNAc(a1-4)Gal(b1-4)GlcNAc(b1-3)Gal(b1-4)GlcNAc
# Summary of the method: as §1
# [15] = biological target: GlcNAc(a1-4)Gal(b1-4)GlcNAc(b1-3)Gal(b1-4)GlcNAc(b1-3)Gal(b1-4)GlcNAc
# Summary of the method: as §1
# [16] = biological target: GlcNAc(a1-4)Gal(b1-4)GlcNAc(b1-3)Gal(b1-4)[Fuc(a1-3)]GlcNAc(b1-3)Gal(b1-4)[Fuc(a1-3)]GlcNAc
# Summary of the method: as §1
# [17] = biological target: GlcNAc(a1-6)Gal(b1-4)GlcNAc
# Summary of the method: as §1
# [18] = biological target: GlcNAc(b1-2)Gal(b1-3)GalNAc
# Summary of the method: as §1
# [19] = biological target: GlcNAc(b1-2)Man(a1-3)[GlcNAc(b1-2)Man(a1-6)]Man(b1-4)GlcNAc(b1-4)GlcNAc
# Summary of the method: as §1
# [20] = biological target: GlcNAc(b1-2)Man(a1-3)[GlcNAc(b1-2)Man(a1-6)]Man(b1-4)GlcNAc(b1-4)[Fuc(a1-6)]GlcNAc
# Summary of the method: as §1
# [21] = biological target: GlcNAc(b1-2)Man(a1-3)[GlcNAc(b1-4)][GlcNAc(b1-2)Man(a1-6)]Man(b1-4)GlcNAc(b1-4)GlcNAc
# Summary of the method: as §1
# [22] = biological target: GlcNAc(b1-2)Man(a1-3)[GlcNAc(b1-4)][GlcNAc(b1-2)Man(a1-6)]Man(b1-4)GlcNAc(b1-4)[Fuc(a1-6)]GlcNAc
# Summary of the method: as §1
# [23] = biological target: GlcNAc(b1-2)[GlcNAc(b1-4)]Man(a1-3)[GlcNAc(b1-2)Man(a1-6)]Man(b1-4)GlcNAc(b1-4)GlcNAc
# Summary of the method: as §1
# [24] = biological target: GlcNAc(b1-2)[GlcNAc(b1-4)]Man(a1-3)[GlcNAc(b1-4)][GlcNAc(b1-2)Man(a1-6)]Man(b1-4)GlcNAc(b1-4)GlcNAc
# Summary of the method: as §1
# [25] = biological target: GlcNAc(b1-2)[GlcNAc(b1-4)]Man(a1-3)[GlcNAc(b1-4)][GlcNAc(b1-2)[GlcNAc(b1-6)]Man(a1-6)]Man(b1-4)GlcNAc(b1-4)GlcNAc
# Summary of the method: as §1
# [26] = biological target: GlcNAc(b1-2)[GlcNAc(b1-4)]Man(a1-3)[GlcNAc(b1-4)][GlcNAc(b1-2)[GlcNAc(b1-6)]Man(a1-6)]Man(b1-4)GlcNAc(b1-4)[Fuc(a1-6)]GlcNAc
# Summary of the method: as §1
# [27] = biological target: GlcNAc(b1-2)[GlcNAc(b1-6)]Man(a1-6)[GlcNAc(b1-2)Man(a1-3)]Man(b1-4)GlcNAc(b1-4)GlcNAc
# Summary of the method: as §1
# [28] = biological target: GlcNAc(b1-2)[GlcNAc(b1-6)]Man(a1-6)[GlcNAc(b1-2)Man(a1-3)]Man(b1-4)GlcNAc(b1-4)[Fuc(a1-6)]GlcNAc
# Summary of the method: as §1
# [29] = biological target: GlcNAc(b1-2)[GlcNAc(b1-6)]Man(a1-6)[GlcNAc(b1-4)][GlcNAc(b1-2)Man(a1-3)]Man(b1-4)GlcNAc(b1-4)GlcNAc
# Summary of the method: as §1
# GlcNAc(b1-3)Fuc = biological target: GlcNAc(b1-3)Fuc
# Summary of the method: as §1
# GlcNAc(b1-3)Gal = biological target: GlcNAc(b1-3)Gal
# Summary of the method: as §1
# [30] = biological target: GlcNAc(b1-3)Gal(b1-3)GalNAc
# Summary of the method: as §1
binder,measurement,setting,value
pilr alpha (protein) MLYGVTQPKHLSASMGGSVEIPFSFYYPWELATAPDVRISWRRGHFHRQSFYSTRPPSIHKDYVNRLFLNWTEGQKSGFLRISNLQKQDQSVYFCRVELDTRSSGRQQWQSIEGTKLSIT,glycan array binding signal (z-score),[1],-0.351
same,glycan array binding signal (z-score),[2],0.029
same,glycan array binding signal (z-score),[3],-0.695
same,glycan array binding signal (z-score),GalNAc(b1-4)GlcNAc6S,-0.266
same,glycan array binding signal (z-score),GalNAc(b1-6)GalNAc,0.632
same,glycan array binding signal (z-score),GalNAc3S(b1-4)GlcNAc,-0.736
same,glycan array binding signal (z-score),GalNAc3S(b1-4)GlcNAc3S,-0.48
same,glycan array binding signal (z-score),[4],0.061
same,glycan array binding signal (z-score),GalNAc4S6S(b1-4)GlcNAc,-0.748
same,glycan array binding signal (z-score),GalNAc6S(b1-4)GlcNAc,-0.996
same,glycan array binding signal (z-score),Glc(a1-4)Glc,-0.097
same,glycan array binding signal (z-score),[5],-0.727
same,glycan array binding signal (z-score),Glc(a1-6)Glc(a1-6)Glc,-0.27
same,glycan array binding signal (z-score),[6],0.34
same,glycan array binding signal (z-score),Glc(b1-4)Glc,-0.012
same,glycan array binding signal (z-score),Glc(b1-6)Glc,0.346
same,glycan array binding signal (z-score),GlcA(b1-3)Gal,-0.13
same,glycan array binding signal (z-score),GlcA(b1-3)GlcNAc,-0.74
same,glycan array binding signal (z-score),GlcA(b1-6)Gal,0.717
same,glycan array binding signal (z-score),[7],-0.175
same,glycan array binding signal (z-score),[8],-0.369
same,glycan array binding signal (z-score),[9],0.257
same,glycan array binding signal (z-score),[10],-0.739
same,glycan array binding signal (z-score),[11],0.004
same,glycan array binding signal (z-score),[12],0.713
same,glycan array binding signal (z-score),[13],-0.435
same,glycan array binding signal (z-score),[14],1
same,glycan array binding signal (z-score),[15],0.089
same,glycan array binding signal (z-score),[16],0.876
same,glycan array binding signal (z-score),[17],0.076
same,glycan array binding signal (z-score),[18],-0.313
same,glycan array binding signal (z-score),[19],0.089
same,glycan array binding signal (z-score),[20],-0.223
same,glycan array binding signal (z-score),[21],-0.774
same,glycan array binding signal (z-score),[22],0.109
same,glycan array binding signal (z-score),[23],-0.534
same,glycan array binding signal (z-score),[24],-0.801
same,glycan array binding signal (z-score),[25],0.141
same,glycan array binding signal (z-score),[26],-0.583
same,glycan array binding signal (z-score),[27],-0.365
same,glycan array binding signal (z-score),[28],-0.2
same,glycan array binding signal (z-score),[29],-0.182
same,glycan array binding signal (z-score),GlcNAc(b1-3)Fuc,1.32
same,glycan array binding signal (z-score),GlcNAc(b1-3)Gal,-0.165
same,glycan array binding signal (z-score),[30],-0.214
